We go through 1 substance from publication PMC10713658.

Chains of the proteins cited; added tags and fusions are not shown.
UniProt Q9NYB9: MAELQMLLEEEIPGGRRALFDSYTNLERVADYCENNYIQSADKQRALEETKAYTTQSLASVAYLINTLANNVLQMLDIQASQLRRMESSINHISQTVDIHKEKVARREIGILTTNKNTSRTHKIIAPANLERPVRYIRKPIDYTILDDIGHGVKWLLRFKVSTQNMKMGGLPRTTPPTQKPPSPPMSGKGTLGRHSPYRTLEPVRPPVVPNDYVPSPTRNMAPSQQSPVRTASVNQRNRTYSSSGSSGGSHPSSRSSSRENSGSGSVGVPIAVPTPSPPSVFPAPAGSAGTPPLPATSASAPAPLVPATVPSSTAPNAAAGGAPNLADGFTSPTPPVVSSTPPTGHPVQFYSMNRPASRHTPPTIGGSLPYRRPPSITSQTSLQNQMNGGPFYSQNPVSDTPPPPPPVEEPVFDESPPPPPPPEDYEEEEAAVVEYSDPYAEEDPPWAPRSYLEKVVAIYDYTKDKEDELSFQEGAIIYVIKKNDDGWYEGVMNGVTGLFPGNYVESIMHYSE

This assay addresses T1, Flag-GRAF1 WT (UniProt Q9UNA1).
T1 sequence: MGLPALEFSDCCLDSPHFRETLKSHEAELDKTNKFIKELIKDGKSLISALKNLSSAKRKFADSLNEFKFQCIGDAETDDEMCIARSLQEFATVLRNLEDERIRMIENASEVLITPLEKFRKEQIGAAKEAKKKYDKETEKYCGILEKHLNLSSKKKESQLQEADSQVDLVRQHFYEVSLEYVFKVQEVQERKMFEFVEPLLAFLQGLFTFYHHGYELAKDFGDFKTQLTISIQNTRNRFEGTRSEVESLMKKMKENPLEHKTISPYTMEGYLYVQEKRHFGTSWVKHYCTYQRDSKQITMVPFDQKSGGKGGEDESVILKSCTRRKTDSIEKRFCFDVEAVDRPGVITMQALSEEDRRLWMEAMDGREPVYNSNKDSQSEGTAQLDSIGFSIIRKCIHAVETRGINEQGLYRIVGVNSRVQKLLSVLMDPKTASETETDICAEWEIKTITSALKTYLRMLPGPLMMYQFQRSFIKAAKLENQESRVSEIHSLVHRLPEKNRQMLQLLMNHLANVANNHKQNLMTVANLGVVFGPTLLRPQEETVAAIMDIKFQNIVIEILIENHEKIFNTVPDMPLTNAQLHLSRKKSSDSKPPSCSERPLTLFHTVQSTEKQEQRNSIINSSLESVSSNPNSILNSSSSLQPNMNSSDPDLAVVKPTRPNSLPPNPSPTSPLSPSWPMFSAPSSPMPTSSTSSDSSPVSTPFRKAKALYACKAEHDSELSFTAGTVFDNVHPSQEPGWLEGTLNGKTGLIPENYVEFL
The assay is described as follows: affinity purification with mass spectrometry; Flag-GRAF1 IPd by M2 Flag antibody from GRAF1 KO Hela/YFP-Parkin cells treated with OA (2.5 μM oligomycin A, 250 nM antimycin A) for 6 h; on-bead trypsin digestion, LC-MS/MS, label-free quantitation against Flag-empty vector.

These are yes or no findings as the source states them, for the method shown. Binding seen in cells or lysates may run through a third protein. A yes stands for co-enrichment or nearness to the bait. Other partners may have been found. Where a sequence is shown, tags or fusion partners need not be part of it.

As for “Abelson- interactor adaptor-2 (ABI2) (from UniProt Q9NYB9 1-513)”, the binding entry is reported as “binds”.
